For four molecules, binding results are on record in paper PMC3735429, “Plasmodium falciparum encodes a conserved active inhibitor-2 for Protein Phosphatase type 1: perspectives for novel anti-plasmodial therapy” (BMC Biology, 2013).

In experiment [1] the target is His6-PfPP1 (Plasmodium falciparum). Description: pull-down; His6-PfPP1 retained on Ni-NTA beads; 10 mg total protein extract of asynchronous P. falciparum, pre-cleared on Ni-NTA beads, incubated overnight; eluate blotted with anti-PfI2; only the target purified.
Experiment [2] concerns the target PfPP1-Gal4-BD (Plasmodium falciparum). Briefly: two-hybrid; PfPP1 on Gal4-BD (Y187) mated with PfI2 versions on Gal4-AD (AH109); growth of diploids on stringent SD-LWHA for 4 days.
Experiment [3] has the same target. Description: two-hybrid; PfPP1 on Gal4-BD (Y187) mated with PfI2 versions on Gal4-AD (AH109); growth of diploids on SD-LWH for 4 days.

No constants are given. Whether binding was seen depends on the method and setting. Binding can be weak; no strength is given. For part of these data: Tags and fused reporters may be left off the sequences shown. For part of these data: Binding seen in cells or lysates may run through a third protein.

B1: native PfI2 (protein, UniProt C0H480 1-144)
chain: MKKKVDKSVTKKTISWDEVTINEQDKERGSRMKILEPNTPFNFILMDSASEDEASKYGDVKGSDEGQNNIADDLINKLNQLVEKQENKGVSNIDFKEKRKKHYNEYKMLQKLRKSGTLDDIDEEYKPDNKDSNCDNSNMNESEE
On to B1, for which the binding entry in experiment [1] was “binds”.

B2: PfI2-Gal4-AD (protein, UniProt C0H480 1-144)
chain: MKKKVDKSVTKKTISWDEVTINEQDKERGSRMKILEPNTPFNFILMDSASEDEASKYGDVKGSDEGQNNIADDLINKLNQLVEKQENKGVSNIDFKEKRKKHYNEYKMLQKLRKSGTLDDIDEEYKPDNKDSNCDNSNMNESEE
Consider B2, for which the binding result in experiment [2] and in experiment [3] was “binds” in each case.

B3: PfI2(1–94)-Gal4-AD (domain or fragment, UniProt C0H480 1-94)
chain: MKKKVDKSVTKKTISWDEVTINEQDKERGSRMKILEPNTPFNFILMDSASEDEASKYGDVKGSDEGQNNIADDLINKLNQLVEKQENKGVSNID
As for B3, in experiment [3], the binding entry was “no binding”.

B4: PfI2(19–144)-Gal4-AD (domain or fragment, UniProt C0H480 19-144)
chain: VTINEQDKERGSRMKILEPNTPFNFILMDSASEDEASKYGDVKGSDEGQNNIADDLINKLNQLVEKQENKGVSNIDFKEKRKKHYNEYKMLQKLRKSGTLDDIDEEYKPDNKDSNCDNSNMNESEE
For B4, the binding entry in experiment [2] and in experiment [3] was “binds” in each case.
